Source: paper doi:10.1101/2020.01.27.921122
Like-named read-outs stand apart in the source and are kept apart here. These are yes or no findings as the source states them, for the method shown. In cells and extracts the contact can be indirect. Some results given as binding are weak or reduced against the parent protein; the word gives no strength. For some of these results: Tags and fused reporters may be left off the sequences shown.

The chains behind the UniProt entries cited, without tags or fusion partners.
UniProt O88879: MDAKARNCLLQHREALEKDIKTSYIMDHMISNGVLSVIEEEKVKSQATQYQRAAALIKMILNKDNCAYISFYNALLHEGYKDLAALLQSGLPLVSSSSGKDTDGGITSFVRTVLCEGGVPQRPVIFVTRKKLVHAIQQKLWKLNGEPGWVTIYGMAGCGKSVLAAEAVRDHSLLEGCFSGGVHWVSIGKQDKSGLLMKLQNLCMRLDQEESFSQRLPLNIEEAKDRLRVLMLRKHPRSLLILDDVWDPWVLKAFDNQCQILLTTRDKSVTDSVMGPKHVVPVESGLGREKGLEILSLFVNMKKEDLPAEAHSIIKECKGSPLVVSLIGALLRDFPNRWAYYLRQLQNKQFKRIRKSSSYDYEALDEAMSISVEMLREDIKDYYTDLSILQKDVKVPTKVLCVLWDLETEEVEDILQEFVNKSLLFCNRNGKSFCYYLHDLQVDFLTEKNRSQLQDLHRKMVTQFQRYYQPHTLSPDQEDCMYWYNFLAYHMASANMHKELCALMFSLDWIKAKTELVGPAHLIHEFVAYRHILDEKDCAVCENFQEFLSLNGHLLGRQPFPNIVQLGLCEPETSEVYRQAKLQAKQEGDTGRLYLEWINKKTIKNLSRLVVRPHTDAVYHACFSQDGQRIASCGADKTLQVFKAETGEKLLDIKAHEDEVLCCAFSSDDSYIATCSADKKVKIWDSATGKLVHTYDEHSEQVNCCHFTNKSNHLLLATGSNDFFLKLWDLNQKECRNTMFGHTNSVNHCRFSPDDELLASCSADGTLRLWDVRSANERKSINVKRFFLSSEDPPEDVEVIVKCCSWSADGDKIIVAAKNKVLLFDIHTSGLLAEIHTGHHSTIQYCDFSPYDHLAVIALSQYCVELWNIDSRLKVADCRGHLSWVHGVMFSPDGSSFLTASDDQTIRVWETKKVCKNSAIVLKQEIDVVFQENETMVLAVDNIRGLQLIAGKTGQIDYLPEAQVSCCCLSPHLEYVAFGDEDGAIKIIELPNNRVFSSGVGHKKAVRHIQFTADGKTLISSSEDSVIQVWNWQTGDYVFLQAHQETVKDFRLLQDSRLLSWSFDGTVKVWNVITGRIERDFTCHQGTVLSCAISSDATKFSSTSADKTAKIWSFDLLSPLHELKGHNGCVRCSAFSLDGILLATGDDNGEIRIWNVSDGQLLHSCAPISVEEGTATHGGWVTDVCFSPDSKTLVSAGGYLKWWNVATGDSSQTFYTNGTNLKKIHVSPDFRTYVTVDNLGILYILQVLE
UniProt P55211: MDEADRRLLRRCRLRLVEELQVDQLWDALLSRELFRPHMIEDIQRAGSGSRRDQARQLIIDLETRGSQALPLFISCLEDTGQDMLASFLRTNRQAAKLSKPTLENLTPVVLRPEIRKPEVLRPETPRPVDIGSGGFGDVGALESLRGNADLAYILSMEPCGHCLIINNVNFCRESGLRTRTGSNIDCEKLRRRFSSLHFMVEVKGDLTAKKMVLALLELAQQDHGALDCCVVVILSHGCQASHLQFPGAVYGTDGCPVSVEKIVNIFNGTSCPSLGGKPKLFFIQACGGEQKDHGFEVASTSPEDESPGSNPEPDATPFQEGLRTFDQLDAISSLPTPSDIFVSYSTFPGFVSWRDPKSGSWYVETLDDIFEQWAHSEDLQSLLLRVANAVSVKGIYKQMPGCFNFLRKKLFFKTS
UniProt O14727: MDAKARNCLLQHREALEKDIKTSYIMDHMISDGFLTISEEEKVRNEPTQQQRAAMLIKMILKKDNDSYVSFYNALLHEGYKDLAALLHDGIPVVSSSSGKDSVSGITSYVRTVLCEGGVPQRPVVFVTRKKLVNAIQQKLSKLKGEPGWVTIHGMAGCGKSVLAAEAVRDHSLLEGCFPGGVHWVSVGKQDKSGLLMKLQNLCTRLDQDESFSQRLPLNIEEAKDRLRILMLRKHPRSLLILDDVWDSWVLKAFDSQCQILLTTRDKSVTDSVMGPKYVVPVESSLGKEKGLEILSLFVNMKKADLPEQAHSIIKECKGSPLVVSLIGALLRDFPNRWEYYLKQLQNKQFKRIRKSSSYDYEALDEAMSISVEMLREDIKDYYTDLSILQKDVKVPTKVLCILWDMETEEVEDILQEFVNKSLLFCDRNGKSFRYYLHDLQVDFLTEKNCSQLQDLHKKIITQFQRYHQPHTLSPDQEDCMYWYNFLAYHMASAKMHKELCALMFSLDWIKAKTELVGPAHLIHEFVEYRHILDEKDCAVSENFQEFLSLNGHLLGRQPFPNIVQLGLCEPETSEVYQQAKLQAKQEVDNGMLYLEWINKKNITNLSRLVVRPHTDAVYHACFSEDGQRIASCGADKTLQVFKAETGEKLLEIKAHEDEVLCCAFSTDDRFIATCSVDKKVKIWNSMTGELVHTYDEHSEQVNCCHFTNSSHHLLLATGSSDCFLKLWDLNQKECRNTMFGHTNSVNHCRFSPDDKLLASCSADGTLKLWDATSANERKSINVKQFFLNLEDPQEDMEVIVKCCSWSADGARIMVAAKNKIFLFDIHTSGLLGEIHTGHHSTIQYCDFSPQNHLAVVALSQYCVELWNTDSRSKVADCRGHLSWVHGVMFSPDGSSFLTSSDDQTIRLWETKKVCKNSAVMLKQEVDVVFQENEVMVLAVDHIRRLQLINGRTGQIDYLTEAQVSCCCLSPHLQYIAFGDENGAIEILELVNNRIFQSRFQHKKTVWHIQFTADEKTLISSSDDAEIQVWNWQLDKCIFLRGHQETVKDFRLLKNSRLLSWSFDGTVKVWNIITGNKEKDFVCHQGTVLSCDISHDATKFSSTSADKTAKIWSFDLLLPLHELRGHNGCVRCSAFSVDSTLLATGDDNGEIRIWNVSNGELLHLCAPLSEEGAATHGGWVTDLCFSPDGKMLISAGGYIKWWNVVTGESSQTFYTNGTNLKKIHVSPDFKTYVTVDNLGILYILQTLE

Assays:
[1] = target: T1, pro-caspase-11 (mouse (endogenous in BMDMs and liver)) (UniProt P70343); test: co-IP
T1 sequence: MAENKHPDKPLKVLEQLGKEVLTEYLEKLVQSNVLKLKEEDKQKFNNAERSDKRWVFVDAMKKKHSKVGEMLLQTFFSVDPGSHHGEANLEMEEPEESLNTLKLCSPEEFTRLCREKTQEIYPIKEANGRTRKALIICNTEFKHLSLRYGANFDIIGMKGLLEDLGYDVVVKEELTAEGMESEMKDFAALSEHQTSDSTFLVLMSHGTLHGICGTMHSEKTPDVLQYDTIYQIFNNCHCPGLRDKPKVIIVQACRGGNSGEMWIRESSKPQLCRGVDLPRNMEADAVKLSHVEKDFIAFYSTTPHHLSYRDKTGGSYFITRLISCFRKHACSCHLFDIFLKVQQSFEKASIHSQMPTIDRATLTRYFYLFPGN

[2] = target: T1, pro-caspase-11 (mouse (endogenous in BMDMs and liver)); test: co-IP; remark: listed apart in the source
[3] = target: T2, pro-caspase-4-His (human) (UniProt P49662); test: pull-down
T2 sequence: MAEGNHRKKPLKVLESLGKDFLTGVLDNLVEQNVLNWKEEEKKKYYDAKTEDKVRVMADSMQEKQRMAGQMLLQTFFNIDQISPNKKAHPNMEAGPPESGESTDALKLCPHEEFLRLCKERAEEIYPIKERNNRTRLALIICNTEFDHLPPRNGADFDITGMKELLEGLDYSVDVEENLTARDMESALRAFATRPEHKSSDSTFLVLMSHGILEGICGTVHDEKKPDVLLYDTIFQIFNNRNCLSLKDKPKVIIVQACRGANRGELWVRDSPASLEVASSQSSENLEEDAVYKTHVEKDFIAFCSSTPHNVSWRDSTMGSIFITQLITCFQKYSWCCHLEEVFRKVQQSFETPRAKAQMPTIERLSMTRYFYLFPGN

Substance | binding [1] | binding [2] | binding [3]
Apaf-1 (from UniProt O88879 1-1249) | binds | binds | –
endogenous pro-caspase-9 (from UniProt P55211 1-416) | – | – | no binding
endogenous Apaf-1 (from UniProt O14727 1-1248) | – | – | binds
